Results deposited as PubChem BioAssay AID652259 (Drosophila RNAi Screening Center, 2013)
In all, the deposit lists about 22,000 reagents; this is a random part of those with a known target gene and a result. Of all reagents, 233 (1.1%) were called active. 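Light values are raw, unnormalised plate reads; the ratio scores behind the reporter calls were not deposited.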 A number with no mark means an inactive call. The numbers tell different reagents against one gene apart. A plus sign joins genes that one reagent is predicted to hit. Not stated in the record: the amount of reagent, the time to read-out, the dose of the treatment.

- Screen: 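Identify new Wingless signalling regulators in fly cells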 (primary screen)
- Cell system: Drosophila clone 8 imaginal disc epithelial cells
- Reagent: long dsRNA against Drosophila genes
- Treatment: pathway stimulated by co-transfected Wingless expression plasmid
- Read-out: 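Firefly luciferase from a tcf-site Wingless reporter, measured alongside co-transfected Renilla luciferase that tracks transfection; pathway stimulated by a Wingless plasmid; the firefly-to-Renilla ratio is not deposited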
- Direction: firefly reporter light: higher = more Wg reporter light, before normalisation; Renilla control light: higher = more transfected or surviving cells
- Call rule: 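Strong candidates differ from their plate mean by at least two out of four per-plate statistical tests; weak candidates meet just one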
- Meaning of the calls: active = candidate regulator (raises or lowers reporter); inactive = not a candidate

target | reagent no. | reporter change call, replicate 1 | firefly reporter light, replicate 1 | firefly reporter light, replicate 2 | Renilla control light, replicate 1 | Renilla control light, replicate 2
CG10631 | 1 | – | 12675 | – | 3961 | –
CG10584 | 1 | – | 24138 | – | 7141 | –
CG8818 | 1 | – | 9389 | – | 1712 | –
Brr2 (Brr2 U5 snRNP complex subunit) | 1 | – | 4247 | – | 1065 | –
CG12662 | 1 | – | 21748 | – | 10410 | –
ND1 (retired record) | 1 | – | 17114 | – | 11285 | –
Shc (SHC-adaptor protein) | 1 | – | 4787 | – | 2037 | –
CG7430 | 1 | – | 5920 | – | 2267 | –
ph-p (polyhomeotic proximal) | 1 | – | 23316 | – | 13916 | –
mthl8 (methuselah-like 8) | 1 | – | 16422 | – | 3820 | –
mthl8 (methuselah-like 8) | 2 | – | 6112 | – | 3008 | –
CG7564 | 1 | – | 9568 | – | 4151 | –
scny (scrawny) | 1 | – | 2595 | – | 1344 | –
scny (scrawny) | 2 | – | 1757 | 7589 | 689 | 1061
CG3097 | 1 | – | 22989 | – | 10621 | –
CG9449 | 1 | – | 11352 | – | 2674 | –
CG6168 | 1 | – | 5627 | – | 2537 | –
heca (headcase) | 1 | Wg reporter activity raised (active) | 12115 | – | 1552 | –
Slc45-1 | 1 | – | 1511 | 9651 | 1084 | 4304
DCTN3-p24 (Dynactin 3, p24 subunit) | 1 | – | 13622 | – | 2956 | –
Nep7 (Neprilysin 7) | 1 | – | 5351 | – | 2067 | –
CG43394 | 1 | – | 17378 | – | 6134 | –
CG43394 | 2 | – | 7.82e5 | 6.35e5 | 2.58e5 | 52
Trap1 | 1 | – | 16705 | – | 6711 | –
CG34316 + asRNA:CR43471 | 1 | – | 3736 | – | 1650 | –
CG4988 | 1 | – | 3525 | 4791 | 1361 | 1808
Hinfp (Histone H4 transcription factor) | 1 | – | 13328 | – | 10202 | –

7 of these entries, set out differently.
Brr2 (Brr2 U5 snRNP complex subunit)
- firefly reporter light, replicate 1: 4247
- Renilla control light, replicate 1: 1065

CG12662
- firefly reporter light, replicate 1: 21748
- Renilla control light, replicate 1: 10410

ND1 (retired record)
- firefly reporter light, replicate 1: 17114
- Renilla control light, replicate 1: 11285

Shc (SHC-adaptor protein)
- firefly reporter light, replicate 1: 4787
- Renilla control light, replicate 1: 2037

CG7430
- firefly reporter light, replicate 1: 5920
- Renilla control light, replicate 1: 2267

ph-p (polyhomeotic proximal)
- firefly reporter light, replicate 1: 23316
- Renilla control light, replicate 1: 13916

mthl8 (methuselah-like 8) #1
- firefly reporter light, replicate 1: 16422
- Renilla control light, replicate 1: 3820

The results go on.
target | reagent no. | reporter change call, replicate 1 | firefly reporter light, replicate 1 | firefly reporter light, replicate 2 | Renilla control light, replicate 1 | Renilla control light, replicate 2
CG33203 | 1 | – | 9372 | – | 3890 | –
CG33203 | 2 | – | 8608 | – | 5648 | –
CG33203 | 3 | – | 8978 | 6.68e5 | 6487 | 3.67e5
Grd (Glycine receptor) | 1 | – | 4195 | – | 2272 | –
Cp16 (Chorion protein 16) | 1 | – | 1171 | 9193 | 912 | 3767
CG11885 | 1 | – | 5065 | – | 1561 | –
CG17601 | 1 | – | 14178 | – | 8720 | –
CG9522 | 1 | – | 18982 | – | 8374 | –
dy (dusky) | 1 | – | 30572 | – | 16924 | –
Lamtor4 (Late endosomal/lysosomal adaptor, MAPK and MTOR activator 4) | 1 | – | 5994 | – | 2950 | –
CG12914 | 1 | – | 2250 | 6965 | 903 | 2770
CG11456 | 1 | – | 3542 | – | 1564 | –
Bcs1 (Bcs1 chaperone) | 1 | – | 2720 | 7888 | 707 | 3192
CkIIbeta (Casein kinase II beta subunit) | 1 | – | 12458 | – | 8120 | –
Gr98a (Gustatory receptor 98a) | 1 | – | 1891 | – | 624 | –
KFase (Kynurenine formamidase) | 1 | – | 2616 | 4305 | 816 | 772
mthl1 (methuselah-like 1) | 1 | – | 14597 | – | 7192 | –
cora (coracle) | 1 | – | 6848 | – | 1840 | –
Osi1 (Osiris 1) | 1 | – | 21133 | – | 5241 | –
Osi15 (Osiris 15) | 1 | – | 8647 | – | 1681 | –
axed (axundead) | 1 | – | 3152 | – | 1428 | –
axed (axundead) | 2 | Wg reporter activity lowered | 656 | 5964 | 973 | 3069
